The other results are listed elsewhere or left out. Rule as the data show it: active = 2 or more and inactive = the rest. Most values lie within the scatter of the assay; repeated measurements hardly agree.
system: Lgr5 (MarsCy1-Lgr5-EGFP, U2OS); assay: cell-surface Lgr5 expression (SCi1 fluorescence, background-subtracted) relative to WT DMSO (fold of DMSO control); higher = more Lgr5 at the plasma membrane; conditions: U2OS MarsCy1-Lgr5-EGFP stable; treatment time: overnight; library: ActiProbe-5K (TimTec); 25 µM

cell-surface Lgr5 expression, inactive:
O=S(=O)(NC1CCCCC1)c1ccc2c(c1)OCCO2 1.13
FC(F)(F)c1nc2ccccc2[nH]1 1.42
COc1cc(-c2nnc(SCc3cc(Cl)cc4c3OCOC4)o2)cc(OC)c1OC 1.36
Cc1c(Br)c(-c2nnc(C34CC5CC(CC(C5)C3)C4)o2)nn1C 1.32
O=S1(=O)CCC(SCc2nnc(-c3ccccc3)o2)C1 (stereo not given) 1.37
O=C(O)CCCCc1cccs1 1.08
O=C1CC(C(F)(F)F)=NN1c1nc2ccccc2s1 1.94
C#CCOC(=O)C1C2C=CC(C2)C1C(=O)O (stereo not given) 1.2
Brc1cc(N2CCOCC2)cc2nonc12 1.33
CN1CC=C(/C=C\c2ccco2)CC1 1.33
C=CC[C@H]1CC(C)=C[C@@H](CC=C)N1.Cl 1.15
Cn1c(=O)oc2cc(S(=O)(=O)NCC3CC4CCC3C4)c(Cl)cc21 (stereo not given) 1.22
O=C(Nc1nonc1NC(=O)C12CC3CC(CC(C3)C1)C2)C12CC3CC(CC(C3)C1)C2 1.1
S=c1[nH]nc(Cc2ccccc2)n1C1CCCCC1 1.32
O=C(N/N=C/c1ccc(Br)o1)c1cccs1 0.897
Cc1ccc2c(c1)-c1c(ss/c1=N/c1ccc(Cl)cc1Cl)C(C)(C)N2 0.96
O=C(O)CCCNC(=O)c1cc(=O)[nH]c(=O)[nH]1 1.05
N#Cc1ccc(CSCC(O)C(O)CSCc2ccc(C#N)cc2)cc1 (stereo not given) 1
OCCNC12CC3CC(CC(C3)C1)C2 1.3
O=C([O-])COc1ccc2cc(Br)ccc2c1Br.[Na+] 1.11
COc1cc(-n2cnnn2)cc(S(=O)(=O)c2ccc(Cl)cc2)c1 1.28
N#C/C(=C/c1ccc(Cl)cc1Cl)c1ccc(Cl)cc1 1.42
O=C(O)c1nn2cc(-c3n[nH]c(-c4cnc5c(Cl)c(C(=O)O)nn5c4)c3[N+](=O)[O-])cnc2c1Cl 1.15
O=C1CCC(=O)c2oc3ccc(Cl)cc3c2N1 1.12
C[C@@]1(C2(C(C[C@@H]1CC2)=O)CS(=O)(=O)O)C.N 1.06
COc1cc2c(cc1NS(=O)(=O)N1CCCC1)oc1ccccc12 1.01
Cc1nc(N)sc1C(C)(C)C 0.716
O=C(NCc1ccco1)c1cc2n(n1)C(C(F)(F)F)CC(c1ccco1)N2 (stereo not given) 1.2
c1ccc2cc(Oc3ccc4ccccc4c3)ccc2c1 1.06
Cn1c(=O)c2c(ncn2CCCO)n(C)c1=O 1.18
CSc1ccc(S(=O)(=O)Nc2ccc3c(c2)OCCO3)cc1 1.02
CCOC(=O)c1cnc(SC)nc1N(C)C 1.22
O=C1NC(=S)S/C1=C\c1ccoc1 1.13
Sc1nc(-c2ccccc2)c(-c2ccccc2)o1 0.803
CCCCC/C=C\C(=O)NC1CC1 1.11
CCCC/C(C)=N/NC(=O)c1cc(C)oc1C 1.16
O=C(c1cccs1)c1nonc1C(=O)c1cccs1 0.837
CC(C)(C)C(O)CN1CCCC1 (stereo not given) 1.17
COC(=O)C1CN(C)CCC1=O (stereo not given) 1.26
Cc1cc2n(n1)C(C(F)(F)F)CC(C)N2 (stereo not given) 1.35
Cc1nn(C)cc1C(C)NC(=O)c1c(Br)c(C)nn1C (stereo not given) 0.886
O=C1N2CCSC2=NC1(Nc1ccccn1)C(F)(F)F (stereo not given) 0.985
O=S(=O)(N1CCCC1)N1CCN(c2ccccc2F)CC1 0.854
O=C(CSc1nc2[nH]c(=O)cc(O)c2s1)Nc1nncs1 1.15
Nc1nonc1-c1noc(-c2cccnc2)n1 1.04
COCCCN1C(=O)/C(=C/c2ccco2)SC1=S 1.56
N#Cc1c(-c2ccccc2)cc(-c2ccccc2)[nH]c1=S 1.21
Cc1[nH]nc(C(F)(F)F)c1Cl 1.11
O=[N+]([O-])c1ccc(SC2CCCCC2)c(C2SCCS2)c1 1.31
Oc1cc2ccccc2cc1-c1nnc(CCl)o1 1.54
Cc1ccc(/C(N)=N/O)n1C 0.933
Cc1cc(C)c(CSc2nc(C)cc(O)n2)c(C)c1 1.04
CCSc1sc(CN(C)C)cc1/C=N\O 1.15
CCNC(=S)n1ccc(C)n1 1.06
Cc1ccc(S(=O)(=O)N2CC(C)N(S(C)(=O)=O)C2)cc1 (stereo not given) 1.25
Cc1ccsc1CN(Cc1sccc1C)CC(C)O (stereo not given) 1.1
c1cc2[nH]c3c(c2c2nonc12)CCCC3 0.367
O=C(CSc1nsc(SCC(=O)N2CCCCC2)n1)N1CCCCC1 1.09
C=CCN(CC=C)S(=O)(=O)c1ccc(F)cc1 1
O=C(O)C1Nc2c(Cl)cc(Cl)c(Cl)c2C2C=CCC12 (stereo not given) 0.887
Sc1nnc(-c2ccccc2)n1/N=C\C=C/c1ccccc1 1.08
CS(=O)(=O)c1ccc(S(C)(=O)=O)s1 1.2
CC1CCC2(CC1)C(C#N)=C(S)NC(=O)C2C#N (stereo not given) 1.16
COc1cc(-c2nc3sc(-c4ccc(OC5CCCC5)c(OC)c4)nc3s2)ccc1OC1CCCC1 1.37
Oc1ccc2c(c1)c1c3n2CCNC3CCC1 (stereo not given) 1.23
COc1ccc(S(=O)(=O)Nc2ccc3c(c2)OCO3)cc1Br 0.82
CCOC(=O)c1c(NC(=O)CSC2=NCCS2)sc2c1CCC2 1.19
c1(nc(N)sc1)/C=C(\Cl)Cl 0.864
COc1cc(-c2nnc(SC)n2-c2ccc3c(c2)OCO3)cc(OC)c1OC 1.67
C(=C/N1CCOCC1)(/C#N)C#N 1.17
c1ccc(cc1)C(c1ccccc1)N1CCN(CC1)\N=C1/c2c(cccc2)c2c1cccc2 1.17
COCc1nnn(-c2nonc2N)c1C(=O)N/N=C/C1CC=CCC1 (stereo not given) 0.96
O=C1CCCN1c1ccc(S(=O)(=O)[O-])cc1 1.1
COC(=O)c1c(C(=O)OC)c2n(c1C)[C@@H](c1cccs1)SC2 0.923
Cc1ccc2c(n1)sc1c(O)cc(O)nc12 1.16
Oc1nonc1N1CCOCC1 1.48
O=C1CCCCC1C1(O)C(=O)Nc2ccc(Br)cc21 (stereo not given) 1.27
CSc1nnnn1-c1ccc(F)cc1 0.906
O=S(=O)(NCC1CCCO1)c1ccc(Br)cc1 (stereo not given) 1.33
Cn1c(S)nnc1C12CC3CC(CC(C3)C1)C2 1.27
CC(=O)CSC(=S)N(CCN(Cc1cccs1)C(=S)SCC(C)=O)Cc1cccs1 1.28
O=C1CCCCCCCCCCCC(O)CCO1 (stereo not given) 1.03
C[n+]1c2cc(N)ccc2cc2ccc(N)cc21.Cl.[Cl-] 0.219
N=C1NC(=O)/C(=C2/C(=O)Nc3ccccc32)S1 0.731
O=C1CCCN1C(=O)CCC(=O)N1CCCC1=O 0.814
CN(C)C(=O)CSc1nnc(-c2ccco2)o1 1.95
O=S(=O)(Nc1ccc(Br)cc1)c1ccc(F)cc1 1.25
Cc1nn(Cn2cc(Cl)cn2)c(C)c1N 1.21
Cc1nc2nc(S(=O)(=O)N3CCCCC3)nn2c(C)c1C 1.4
CCCC(C)C(=O)NCC1CCCO1 (stereo not given) 1.18
Nc1nonc1-c1noc(-c2sc3ccccc3c2Cl)n1 1.22
N=C(N)SCc1csc2c1CCCC2 1.17
O=[N+]([O-])c1cc(C(F)(F)F)ccc1F 1.31
COc1cc2nc(SCc3ccon3)[nH]c2cc1OC 1.15
COC(=O)C1=C(OC)C(=O)OC12C=CC(=O)C=C2 0.434
CNc1ccc(OC(F)(F)F)cc1 1.1
COCc1nnc(NC(=O)C23CC4CC(CC(C4)C2)C3)s1 1.17
CS(=O)(=O)N(Cc1ccon1)c1ccc(F)cc1 1.18
Cc1nc2[nH]cc(C(=O)O)c(=O)n2n1 1.28
Cn1cccc1CC(=O)N/N=C/C=C/c1ccco1 1.61
O=C(O)CCc1cc(Cl)no1 1.13
S=c1nc2[nH]c3ccccc3c2n[nH]1 1.34
Oc1ccc(/C=N/c2nccs2)c(O)c1 1.09
CS(=O)(=O)N1CCCc2cc(S(=O)(=O)N3CCCC3)ccc21 1.12
CCn1cc(CNS(=O)(=O)c2cnn(CC)c2C)cn1 1.26
C[N+](C)(CCC#N)Cc1cccc2ccccc12.[Cl-] 1.79
NC(=O)N/N=C\c1ccc(N)o1 1.12
Cc1nc2n(n1)C=COc1ccccc1-2 1.17
[O-][n+]1onc(C(c2ccccc2)c2ccccc2)c1C(c1ccccc1)c1ccccc1 0.888
O=[N+]([O-])c1cnn(C2=CNc3ccccc3N=C2)c1 1.33

For convenience, part of the list above:
cell-surface Lgr5 expression, inactive:
COCCCN1C(=O)/C(=C/c2ccco2)SC1=S 1.56
N#Cc1c(-c2ccccc2)cc(-c2ccccc2)[nH]c1=S 1.21
Cc1[nH]nc(C(F)(F)F)c1Cl 1.11
O=[N+]([O-])c1ccc(SC2CCCCC2)c(C2SCCS2)c1 1.31

— the supplement of paper PMC4683952
